# Measurements reported in the supplement of paper PMC5949888.
# Most values lie at the floor of the assay. Slopes are relative: functional sequences can read slightly below zero.
# Test system: Saccharomyces cerevisiae PS128 hsf1 delta, HSF1(1-493) fusion
# Experiment: growth estimate (transactivation domain function in HSF1 fusion, heat-shock survival) (a.u. (slope of normalised read count over time)); higher = stronger growth at 37°C, i.e. more transactivation activity
# Settings: library: random library
row,Substance,growth estimate
1,WDAVNKWGERCKGLS,< -0.25
2,GWITSGVRRDPQPLSD,< -0.25
3,SGY,< -0.25
4,LPELQRVKIIGGVAHICVPS,< -0.25
5,STRYLLYCV,< -0.25
6,RLTRPRLGYDKIFVLVRPLT,< -0.25
7,CVPAGSPPRSGATHLGQERG,< -0.25
8,CQEICCGIRAPTPVGTAAEC,< -0.25
9,RADPGYLTHAWLWKS,< -0.25
10,ETPIFLISAASATSHDSHPG,< -0.25
11,LKGCKLRGACFIR,< -0.25
12,HIPIIIPQGT,< -0.25
13,VTDRFNC,< -0.25
14,PVCASCSIIVSRPLVRFIGV,< -0.25
15,RCDATGALIRKTLRRTAWE,< -0.25
16,TGIPRWEQHASGRSDRAPAC,< -0.25
17,LLLREAGLVISSLVGPGLFR,< -0.25
18,ILGSDIG,< -0.25
19,WGRTVRWRLLASGFSTPSVG,< -0.25
20,SLCFSIRVYVYLMCQIGELS,< -0.25
21,ASCVVHDRDRLLHRSFR,< -0.25
22,MQSG,< -0.25
23,LRQNTAKSTPRN,< -0.25
24,RGSGPARQ,< -0.25
25,VNSNRPRLTCKTEGP,< -0.25

row,Substance,growth estimate
1,CRKEG,< -0.25
2,GKSSRQ,< -0.25
3,TIVCTGITQTLFNQGEEC,-0.19
4,TVHAHSGAEPITKFGGRSVI,< -0.25
5,GNMG,< -0.25
6,GSHDENWTWGFVYNTLSHFG,0.0018
7,LICSLTLISEG,< -0.25
8,WDQIGVTRCGTQLFYSRRLP,< -0.25
9,GLEGIYSRENATGRGHMSAA,< -0.25
10,CPSAATCVHSER,< -0.25
11,VEATDYS,< -0.25
12,GIDSFMGGAY,< -0.25
13,AGDIVTKDGRKK,< -0.25
14,RELA,< -0.25
15,SLSYDSIVISDLML,< -0.25
16,CGSLVQPKPEDLGRPIWTMP,< -0.25
17,GAKVDH,< -0.25
18,PLLQG,-0.0363
19,RPLV,< -0.25
20,TVLTVCLRHFSNSALIVWWI,< -0.25
21,LNRGDRQAEQSPDMARPGST,< -0.25
22,NGHSHPQLPQSNTPQLTESS,< -0.25
23,EQGLENILIAAKQ,-0.231
24,GRIRLIVYRGKLKHCLRYSH,< -0.25
25,LCGTTTIGCSSVALIASRVP,< -0.25

# Copied from the list.
# Entry of TIVCTGITQTLFNQGEEC under growth estimate: -0.19
# Entry of GKSSRQ under growth estimate: < -0.25
# Entry of GLEGIYSRENATGRGHMSAA under growth estimate: < -0.25
# Entry of SLSYDSIVISDLML under growth estimate: < -0.25
# Entry of TVLTVCLRHFSNSALIVWWI under growth estimate: < -0.25

# Following part:

row,Substance,growth estimate
1,LVLATHLKRSVIKALVFETD,< -0.25
2,LDNGNRGVIGVDRTLSHEVL,< -0.25
3,ESYLDMLQQSRNGFH,< -0.25
4,QLI,< -0.25
5,QDFGDTHDAEGPFNSRSNRH,< -0.25
6,LLPLLRTFRLYMLTLYVRFR,< -0.25
7,LKATYRAYGVRRGEISSLPP,< -0.25
8,VIYGSFRFRIPKSACNLPRV,< -0.25
9,SANSSFHGRLRVPRTSIS,< -0.25
10,RSIWDVNED,< -0.25
11,SVSTGTAIFLKGRTVVRWGS,< -0.25
12,AKGSGSLTYASVENF,< -0.25
13,REFHSVQSLGA,< -0.25
14,LRWTYQRYVCRRDINSHKNR,< -0.25
15,RQCAWNSTDICYVRLS,< -0.25
16,RYQQVMLTLNVLSG,< -0.25
17,DQLETSSFNALF,-0.245
18,GIDGA,< -0.25
19,YAEGTGRLDGRANSYNVVYQ,< -0.25
20,DDLISGFSRRLRPAYCDGPS,< -0.25
21,VEAHLFFEARHIAV,< -0.25
22,IRRYSESW,< -0.25
23,VVDITIA,< -0.25
24,CFVRDPYLVSSVANVQCGLR,< -0.25
25,GEHGPKVLPAMAWHDG,< -0.25

row,Substance,growth estimate
1,ISSAESGQPLSWVKMPWLPR,< -0.25
2,LEGLQRY,< -0.25
3,RVKWSGARLKYADADMCAVR,< -0.25
4,AAIGRFRAGVHYAARTATGS,< -0.25
5,FSFHHIWCCGQEIPFLTVPP,< -0.25
6,RDCLTVYPAIYDEFLDLQVH,< -0.25
7,LGRPKSGHARERELP,< -0.25
8,DDKSVQVVVYSLRSGFGPAQ,-0.246
9,YSPDERRHEGGKTETW,< -0.25
10,WVL,< -0.25
11,HVQV,< -0.25
12,CSVDLLMPKA,-0.246
13,HEEA,< -0.25
14,DRSWWAI,0.246
15,PRANYVLNGETPPRLFSLML,< -0.25
16,GAPRV,< -0.25
17,SDHALIRQG,< -0.25
18,RSHQVGIRNSKTVCAQRCVR,< -0.25
19,VIADRSQSIESVLPDRSWGD,< -0.25
20,AWTSISS,< -0.25
21,LSSSFSATYTVGLLGPSRTD,< -0.25
22,CWWRRESIS,< -0.25
23,TLQGVGCGAGPVREAFAWRK,< -0.25
24,ELALGTLQGH,< -0.25
25,ACMDQGLVFA,< -0.25
